Source: patent publication US9301917B2, “Sustained-release pharmaceutical composition” (Kyoto University, priority 2010, dated 2016)

B1: phosphorylase b: protein, MW 97 kDa, used as drug in sucrose/atelocollagen formulation (protein, UniProt P00489 2-843, looked up)
Glycogen phosphorylase, …: SRPLSDQEKRKQISVRGLAGVENVTELKKNFNRHLHFTLVKDRNVATPRDYYFALAHTVRDHLVGRWIRTQQHYYEKDPKRIYYLSLEFYMGRTLQNTMVNLALENACDEATYQLGLDMEELEEIEEDAGLGNGGLGRLAACFLDSMATLGLAAYGYGIRYEFGIFNQKICGGWQMEEADDWLRYGNPWEKARPEFTLPVHFYGRVEHTSQGAKWVDTQVVLAMPYDTPVPGYRNNVVNTMRLWSAKAPNDFNLKDFNVGGYIQAVLDRNLAENISRVLYPNDNFFEGKELRLKQEYFVVAATLQDIIRRFKSSKFGCRDPVRTNFDAFPDKVAIQLNDTHPSLAIPELMRVLVDLERLDWDKAWEVTVKTCAYTNHTVLPEALERWPVHLLETLLPRHLQIIYEINQRFLNRVAAAFPGDVDRLRRMSLVEEGAVKRINMAHLCIAGSHAVNGVARIHSEILKKTIFKDFYELEPHKFQNKTNGITPRRWLVLCNPGLAEIIAERIGEEYISDLDQLRKLLSYVDDEAFIRDVAKVKQENKLKFAAYLEREYKVHINPNSLFDVQVKRIHEYKRQLLNCLHVITLYNRIKKEPNKFVVPRTVMIGGKAAPGYHMAKMIIKLITAIGDVVNHDPVVGDRLRVIFLENYRVSLAEKVIPAADLSEQISTAGTEASGTGNMKFMLNGALTIGTMDGANVEMAEEAGEENFFIFGMRVEDVDRLDQRGYNAQEYYDRIPELRQIIEQLSSGFFSPKQPDLFKDIVNMLMHHDRFKVFADYEEYVKCQERVSALYKNPREWTRMVIRNIATSGKFSSDRTIAQYAREIWGVEPSRQRLPAPDEKIP

Assay: Influence of molecular weight of drug on in vivo gelation of collagen (Example 4)
Details: formulation of protein 10 mg/mL, sucrose 0.25 M, atelocollagen 3% [w/v]; 100 μL dorsal subcutis of mice, 24 hours

In vivo gelation of the collagen, formed a gel:
thyrogloblin: high molecular weight protein (669 kDa) used as drug in sucrose/atelocollagen formulation
transferrin: protein, MW 76 kDa, used as drug in sucrose/atelocollagen formulation
B1
